In doi:10.1101/402099 one finds binding data, which are given here for two molecules.

Protein sequences, listed by entry. Tags and fused reporters are not part of them. Residues count along the entry.
UniProt P9WIN9, residues 24-228: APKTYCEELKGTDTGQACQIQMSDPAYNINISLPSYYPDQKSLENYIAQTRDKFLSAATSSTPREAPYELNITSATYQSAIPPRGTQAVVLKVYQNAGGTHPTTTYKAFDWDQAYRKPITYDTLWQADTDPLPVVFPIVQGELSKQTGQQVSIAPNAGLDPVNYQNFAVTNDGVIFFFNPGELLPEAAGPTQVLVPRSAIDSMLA

This experiment addresses 6x-histidine (6xHIS) tagged Mpt64 (Mycobacterium tuberculosis) (UniProt P9WIN9). Kind of experiment: pull-down.

These are yes or no findings as the source states them, for the method shown.

Take “hen egg white lysozyme (from UniProt P00698 19-147) (enzyme)”: the binding result is on record as “no binding (tested: 1mg/mL)”.

B1: human lysozyme (enzyme, UniProt P61626 19-148)
chain: KVFERCELARTLKRLGMDGYRGISLANWMCLAKWESGYNTRATNYNAGDRSTDYGIFQINSRYWCNDGKTPGAVNACHLSCSALLQDNIADAVACAKRVVRDPQGIRAWVAWRNRCQNRDVRQYVQGCGV
Consider B1, for which the binding entry is “no binding (tested: 1mg/mL)”.
